According to PubChem BioAssay AID504834 (National Center for Advancing Translational Sciences (NCATS), 2011):
Out of some 320,000 compounds screened, about 22,000 (6.9%) were called active. Inconclusive results, whose numbers are uncertain, are shown with a selection of clear calls. Calls come from the whole dose curve; as a rule, active = well fitted inhibition curve with a large enough effect; inconclusive = small, poorly fitted or top-dose-only effect, or another doubt; inactive = no such curve, though single readings can be large or run the other way. A potency beside an inconclusive call is a rough fit, not a confirmed value. Where a SMILES comes first, the peptide text is derived from it. [ ]: non-standard residue; d: D form. The star is where a group is joined. Phe(4-Me) = Cc1ccc(C[CH](N)C(=O)O)cc1; Bz = O=C(c1ccccc1)*

experiment: Primary qHTS for delayed death inhibitors of the malarial parasite plastid, 96 hour incubation; settings: P. falciparum luciferase reporter growth; series mostly up to 28.7 µM
Summary of the method: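 Infected RBCs, 2% Hct / 0.05% parasitemia final; luciferase-reporter P. falciparum; cpd 96 h, 37 C, 5% CO2; luciferase detection reagent; luminescence.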
% is set by controls: 0 for no effect and ±100 for the full control effect; potency is the fitted concentration of half-maximal effect.

Structure (SMILES) | Potency | activity change, negative = inhibition
O=C(NCCN1CCCC1)C1CCN(S(=O)(=O)N2CCC3(CC2)OCCO3)CC1 | inconclusive: 18.5 µM [inhibitor, single point] | 
CCCCc1ccc(NC(=S)N2CCN(C(=O)OCC)CC2)cc1 | inactive | 
O=S(=O)([N-]c1nc2ccccc2nc1-[n+]1ccc(-c2ccncc2)cc1)c1ccccc1 | inconclusive: 11.7 µM [inhibitor, partial curve, poor fit] | 
Cc1ccc(-c2ccc(SCC(=O)c3ccccc3)nn2)cc1 | inconclusive: 16.5 µM [inhibitor, single point] | 
O=C(Cn1nnc(-c2ccccc2)n1)c1ccccc1 | inconclusive: 5.22 µM [inhibitor, partial curve, poor fit] | 
COC(=O)c1cc(OC)c(OC)cc1N=CC1=C(O)CC(C)(C)CC1=O | inconclusive: 0.465 µM [inhibitor, partial curve, poor fit] | 
CCN(C(=O)COC(=O)c1ccc(C=O)cc1)c1c(N)n(Cc2ccccc2)c(=O)[nH]c1=O | inconclusive: 0.0026 µM [inhibitor, full curve, poor fit] | 
O=c1[nH]c(=O)n(Cc2ccco2)c(O)c1C=NCc1ccco1 | inactive | 
CC1=C(C(=O)c2ccccc2)C(c2ccc(N3CCOCC3)cc2)NC(=O)N1 (centres undefined) | inconclusive: 8.28 µM [inhibitor, partial curve, poor fit] | 
O=C1N(Cc2cccc(Cl)c2)C[C@@H]2C[C@@H](c3cccc4ncccc34)N3CCC[C@@]123 | inactive | 
Cc1noc(C)c1S(=O)(=O)N(CC(=O)NCCc1ccccc1)c1ccc(C(C)C)cc1 | inconclusive: 20.8 µM [inhibitor, single point] | 
COc1ccc(Cl)cc1NC(=S)NCCC(c1ccccc1)c1ccccc1 | inconclusive: 14.7 µM [inhibitor, single point] | 
CCCCNc1cc(F)nc(N)n1 | inactive | 
COc1ccc(/C=N/NC(=O)c2cccnc2)cc1COc1ccc([N+](=O)[O-])cc1 | inactive | 
COc1cc(-c2nc(Cc3c(F)cccc3Cl)no2)cc(OC)c1OC | inconclusive: 11.7 µM [inhibitor, single point] | 
O=C(O)c1ccc(N/N=C/C(Br)=C/c2ccccc2)cc1 | inactive | 
Cc1cccc(NS(=O)(=O)c2ccc(C)c(C(=O)NCC(c3ccco3)N3CCCCC3)c2)c1 (centres undefined) | inconclusive: 10.4 µM [inhibitor, partial curve] | 
O=C(Cc1ccc([N+](=O)[O-])cc1)N1N=C2CCCCC2C1(O)C(F)(F)F (centres undefined) | inconclusive: 0.0033 µM [inhibitor, full curve, poor fit] | 
CCCCCN(C(=O)CCC(=O)OCC(=O)c1ccc(C(C)CC)cc1)c1c(N)n(CCCC)c(=O)[nH]c1=O (centres undefined) | inconclusive: 3.7 µM [inhibitor, single point] | 
CCOc1ccc(C2c3cc(OC)c(OC)cc3CC(=O)N2c2ccccc2)cc1 (centres undefined) | inconclusive: 6.57 µM [inhibitor, partial curve] | 
COc1ccc(S(=O)(=O)N(C)c2ccccc2)c2cccnc12 | inconclusive: 18.5 µM [inhibitor, single point] | 
Cc1ccc(C#CC[N+]2(C)CCCCC2)cc1 | active: 1.85 µM | 
COc1cc(OC)c(C2N(c3cc(C)on3)C(=O)C3CCCN32)cc1OC (centres undefined) | active: 4.65 µM | 

Structure (SMILES) | Potency | activity change, negative = inhibition
Cc1cc(S(=O)(=O)N2CCCCC2CCNC(=O)C(=O)NCc2cccnc2)ccc1F (centres undefined) | active: 13.1 µM | 
COc1ccc(Cc2cnc(N)nc2N)cc1OC | active: 3.79 µM | 
CCOC(=O)[C@H]1[C@H]2COc3ccccc3[C@@H]2N2C(=O)c3c(C)cc(C)cc3NC(=O)[C@@]12C | inconclusive: 10.4 µM [inhibitor, single point] | 
CN(C)Cc1c(O)ccc2c(=O)c(-c3ccc(Cl)cc3)coc12 | inconclusive: 10.4 µM [inhibitor, single point] | 
O=C(Nc1c(C(=O)N2CCCCC2)cnn1-c1ccccc1)c1ccco1 | inconclusive: 2.08 µM [inhibitor, full curve, poor fit] | 
O=C(Cc1ccc(F)cc1)N(c1ccc(F)cc1)C1C=CS(=O)(=O)C1 (centres undefined) | inconclusive: 11.7 µM [inhibitor, single point] | 
COC(=O)c1ccccc1S(=O)(=O)NNC(=O)c1ccccc1-n1cccc1 | inconclusive: 4.15 µM [inhibitor, single point] | 
CCCCCC(=O)NNC(=O)c1ccc(F)cc1 | inactive | 
CCCn1c(SCC(=O)Nc2cccc(C(=O)OC)c2)nnc1-c1cccnc1 | active: 10.4 µM | 
Cc1ccc(N=C2NC(=O)/C(=C\c3cccs3)S2)cc1C | inconclusive: 3.7 µM [inhibitor, full curve, poor fit] | 
Cc1cccc(C(=O)Nc2ccnc(-c3cccnc3)n2)c1 | inconclusive: 5.22 µM [inhibitor, partial curve, poor fit] | 
COc1ccc(CNC(=O)COC(=O)CCOc2ccc(C)cc2)cc1 | inactive | 
COc1ccc(CNC(=O)c2cc3ccccc3o2)cc1OC | active: 13.1 µM | 
CCOc1ccc(C(=O)NC(=S)Nc2ccccc2N2CCCCC2)cc1[N+](=O)[O-] | inactive | 
Cc1ccc(C(=O)CSc2nn3c(=O)c(C(C)(C)C)nnc3s2)cc1 | inconclusive: 13.1 µM [inhibitor, single point] | 
COC(=O)c1ccc(-c2noc(CN3CCCC(CNC(C)=O)C3)n2)cc1 (centres undefined) | inconclusive: 1.85 µM [inhibitor, full curve] | 
COc1ccccc1NS(=O)(=O)c1cc(NC(=O)c2cc(=O)[nH]c3ccccc23)ccc1N1CCOCC1 | inconclusive: 13.1 µM [inhibitor, single point] | 
CC1CCN(S(=O)(=O)c2nnc(NC(=O)c3cccc(Cl)c3)s2)CC1 | inactive | 
N/C(=N\S(=O)(=O)c1ccccc1)c1ccc([N+](=O)[O-])cc1 | inactive | 
O=C(O)c1ccccc1C(=O)c1ccc(Br)s1 |  | inactive: 30.1% [at 1.15 µM]
CN1CCN(C(=O)CN2C(=O)NC(C)(c3ccc4ccccc4c3)C2=O)CC1 (centres undefined) | inconclusive: 16.5 µM [inhibitor, single point] | 
Cc1csc(NC(=O)CSc2ccc([N+](=O)[O-])cn2)n1 | active: 11.7 µM | 
CCCc1nc2c(sc3nc4c(cc32)COC(C)(C)C4)c(=O)n1CCN(C)C | inconclusive: 16.5 µM [inhibitor, single point] | 

Structure (SMILES) | Potency | activity change, negative = inhibition
COc1ccc(/C=C2\Oc3cc(OCC(=O)N4CCC[C@H]4CO)ccc3C2=O)c(OC)c1 | inconclusive: 18.5 µM [inhibitor, single point] | 
C[C@@H](CSc1ccccc1)CN1CC[C@H](NC(=O)OCc2ccccc2)CCC1=O | inconclusive: 9.28 µM [inhibitor, single point] | 
Cc1ccc(CC(NC(=O)c2ccccc2)C(=O)NC(CC(C)C)C(=O)O)cc1 (centres undefined) (Bz-[Phe(4-Me)]-Leu-OH; configuration not given here) | inconclusive: 0.294 µM [inhibitor, full curve, poor fit] | 
Cc1cc(NC(=O)c2noc3c2CCCCC3)nn1Cc1ccc(Cl)cc1 | inactive | 
CCN1c2ccccc2-c2nc3ccccc3n2C1c1ccccn1 (centres undefined) | inconclusive: 9.28 µM [inhibitor, partial curve, poor fit] | 
COc1ccc(C(=O)O/N=C(/c2ccccc2)c2ccncc2)cc1OC | inactive | 
CCOc1ncccc1C(=O)OC(C)C(=O)NC(=O)NC1CCCCC1 (centres undefined) | inconclusive: 11.7 µM [inhibitor, single point] | 
O=C(COC(=O)c1ccco1)NCc1ccc2c(c1)OCO2 | inactive | 
COC(=O)CSC1=C(C#N)C(c2ccc(C)cc2)C2=C(CCCC2=O)N1 (centres undefined) | inconclusive: 10.4 µM [inhibitor, single point] | 
COCC1CCN(Cc2nc(-c3ccc(OC)cc3)no2)CC1 | inconclusive: 11.7 µM [inhibitor, single point] | 
CCCN1CCC(N2CCN(c3ccccc3OC)CC2)CC1 | inconclusive: 0.0828 µM [inhibitor, full curve, poor fit] | 
O=C(CNS(=O)(=O)c1ccccc1)OCC(=O)c1ccc(F)cc1 | inconclusive: 0.294 µM [inhibitor, partial curve, poor fit] | 
CC(=O)c1sc(NC(=O)c2ccccc2F)nc1-c1ccccc1 | inactive | 
COc1cc(CN2CC=C(c3ccc(F)cc3)CC2)cc(OC)c1 | inactive | 
COc1ccc(OCC(=O)Nc2ccccc2OC)cc1 | inconclusive: 6.57 µM [inhibitor, single point] | 
Cc1ccc(N2C(=O)C(NC(=O)c3c(F)cccc3F)(C(F)(F)F)C3=C2CC(C)(C)CC3=O)cc1 (centres undefined) | inconclusive: 13.1 µM [inhibitor, partial curve] | 
O=C(Nc1ccon1)c1cccc(C(F)(F)F)c1 | inconclusive: 2.62 µM [inhibitor, full curve, poor fit] | 
O=C(NC1CCCc2ccccc21)C1CCC(CNS(=O)(=O)c2cccc3nsnc23)CC1 (centres undefined) | active: 3.7 µM | 
Cc1nnc(NC(=O)CSCc2cc(=O)c3ccccc3[nH]2)s1 | inactive | 
COc1cc(CCN2C(=O)N[C@@H](c3cccc(C(F)(F)F)c3)C(C(C)=O)=C2C)cc(OC)c1OC | active: 10.4 µM | 
CCN(CC)Cc1ccccc1Sc1ccccc1 | inactive | 
COc1ccc(-n2cnc3cc(NCc4ccco4)ccc32)cc1 | inconclusive: 18.5 µM [inhibitor, single point] | 
CNC(=O)c1ccc(NC(=O)CC2SC(N3CCCC3)=NC2=O)cc1 (centres undefined) | inconclusive: 1.04 µM [inhibitor, full curve] | 

For convenience, part of the list above.
Structure (SMILES) | Potency | activity change, negative = inhibition
CCCN1CCC(N2CCN(c3ccccc3OC)CC2)CC1 | inconclusive: 0.0828 µM [inhibitor, full curve, poor fit] | 
O=C(CNS(=O)(=O)c1ccccc1)OCC(=O)c1ccc(F)cc1 | inconclusive: 0.294 µM [inhibitor, partial curve, poor fit] | 
CC(=O)c1sc(NC(=O)c2ccccc2F)nc1-c1ccccc1 | inactive | 
COc1cc(CN2CC=C(c3ccc(F)cc3)CC2)cc(OC)c1 | inactive | 
COc1ccc(OCC(=O)Nc2ccccc2OC)cc1 | inconclusive: 6.57 µM [inhibitor, single point] | 
